The name of at least one read-out is uncertain.
Experiment: Pharmacokinetics in rats, oral
Format: in vivo
Conditions: oral 1 mg/kg
Description: Pharmacokinetic parameters of ciclopirox were determined in rats and dogs using [^14C]-ciclopirox olamine. Ciclopirox was administered orally to the rats and dogs. […] In the dogs, ciclopirox was administered orally at a dosing level of 15 mg/kg/day, and a C. of 2-7.5 μg/mL was observed within 1.5-2 hours. In a 90 day oral repeat-dosing study in dogs, the mean C. was 3.9 μg/mL, following a ciclopirox olamine dose of 10 mg/kg/day.

Cc1cc(C2CCCCC2)n(O)c(=O)c1 [ciclopirox, 6-cyclohexyl-1-hydroxy-4-methyl-2(1H)-pyridone]
time of Cmax postdose: 0.25 h
